Measurements from PMC7269675.
No constants are given. Whether binding was seen depends on the method and setting. Binding seen in cells or lysates may run through a third protein. These calls come from enrichment with a bait or labelling near it, and not all partners need be listed.

The chains behind the UniProt entries cited, without tags or fusion partners. Residues count along the entry.
UniProt P09102, residues 23-515: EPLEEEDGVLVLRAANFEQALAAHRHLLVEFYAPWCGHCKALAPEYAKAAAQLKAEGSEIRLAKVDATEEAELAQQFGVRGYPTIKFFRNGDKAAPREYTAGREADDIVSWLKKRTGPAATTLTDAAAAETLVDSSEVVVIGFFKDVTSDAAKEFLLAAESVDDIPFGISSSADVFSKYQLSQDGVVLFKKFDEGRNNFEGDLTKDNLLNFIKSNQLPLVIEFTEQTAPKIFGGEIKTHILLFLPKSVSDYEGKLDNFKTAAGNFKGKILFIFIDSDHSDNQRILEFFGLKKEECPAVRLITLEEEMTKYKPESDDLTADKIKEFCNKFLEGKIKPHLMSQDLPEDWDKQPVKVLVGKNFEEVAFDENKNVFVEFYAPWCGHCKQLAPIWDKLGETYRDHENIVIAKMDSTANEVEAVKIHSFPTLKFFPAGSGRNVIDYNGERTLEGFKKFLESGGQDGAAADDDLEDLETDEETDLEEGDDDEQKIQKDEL

Target: T1, peanut agglutinin (peanut) (UniProt P02872)
T1 sequence (chain, bound to agarose): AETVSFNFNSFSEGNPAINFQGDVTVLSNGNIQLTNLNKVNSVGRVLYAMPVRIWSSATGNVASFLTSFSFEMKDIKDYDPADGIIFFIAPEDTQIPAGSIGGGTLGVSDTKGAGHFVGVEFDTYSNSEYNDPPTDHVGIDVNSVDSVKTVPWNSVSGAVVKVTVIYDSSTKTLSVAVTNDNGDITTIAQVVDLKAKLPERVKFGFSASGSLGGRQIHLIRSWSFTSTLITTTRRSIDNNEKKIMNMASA
Assay: affinity purification with mass spectrometry; 400 chick embryo trunks fractionated on agarose-bound PNA; column eluted with 0.5M NaCl, 1% CHAPS, 100 mM Tris-HCl pH 7.5, then with 0.4M lactose/2% CHAPS in PBS; 57 kDa silver-stained band excised, tryptic digestion and mass spectrometry; only the target purified

Q: Which binding does the source give for “somite cell surface protein disulphide isomerase (chicken PDIA1/P4HB) (from UniProt P09102 23-515) (enzyme)” here?
A: Its binding is “binds”.
